Data as given in the supplement of paper PMC12823440, “Inhibitors supercharge kinase turnover through native proteolytic circuits” (Nature, 2025).
Counter-ions that a name gives are not always drawn. Some of the results follow. Hit calls seldom repeat between salt and free forms of one compound.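 Kinases were expressed as nanoluciferase fusions in K562 cells and luminescence was read every 4 h between 2 and 18 h as percent of control, DMSO set to 100% and a positive control to 0%. A time point counts as decreased when the signal drops significantly (2 sigma). The hit call is the authors' own, does not follow from the count of time points alone, and its rule is not shown.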

Chains of the proteins cited; added tags and fusions are not shown. Lines headed by an entry give the natural chain unless they say otherwise; changes in a name come on top.
UniProt Q9BRS2: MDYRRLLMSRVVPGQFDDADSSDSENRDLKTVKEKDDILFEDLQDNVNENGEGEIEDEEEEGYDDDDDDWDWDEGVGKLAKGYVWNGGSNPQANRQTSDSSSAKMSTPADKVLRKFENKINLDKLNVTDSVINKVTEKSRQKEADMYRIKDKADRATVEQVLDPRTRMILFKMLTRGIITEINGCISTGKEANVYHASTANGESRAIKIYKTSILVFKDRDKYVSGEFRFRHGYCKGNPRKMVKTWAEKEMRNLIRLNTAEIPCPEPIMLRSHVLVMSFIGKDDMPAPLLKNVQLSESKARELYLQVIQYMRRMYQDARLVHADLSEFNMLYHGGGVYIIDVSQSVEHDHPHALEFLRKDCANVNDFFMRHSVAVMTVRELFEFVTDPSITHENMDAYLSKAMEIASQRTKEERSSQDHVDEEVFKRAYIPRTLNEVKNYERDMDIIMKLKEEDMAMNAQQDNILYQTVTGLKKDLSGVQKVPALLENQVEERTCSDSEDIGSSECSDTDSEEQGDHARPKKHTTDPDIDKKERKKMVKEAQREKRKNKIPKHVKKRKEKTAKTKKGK
UniProt Q01974, whole entry: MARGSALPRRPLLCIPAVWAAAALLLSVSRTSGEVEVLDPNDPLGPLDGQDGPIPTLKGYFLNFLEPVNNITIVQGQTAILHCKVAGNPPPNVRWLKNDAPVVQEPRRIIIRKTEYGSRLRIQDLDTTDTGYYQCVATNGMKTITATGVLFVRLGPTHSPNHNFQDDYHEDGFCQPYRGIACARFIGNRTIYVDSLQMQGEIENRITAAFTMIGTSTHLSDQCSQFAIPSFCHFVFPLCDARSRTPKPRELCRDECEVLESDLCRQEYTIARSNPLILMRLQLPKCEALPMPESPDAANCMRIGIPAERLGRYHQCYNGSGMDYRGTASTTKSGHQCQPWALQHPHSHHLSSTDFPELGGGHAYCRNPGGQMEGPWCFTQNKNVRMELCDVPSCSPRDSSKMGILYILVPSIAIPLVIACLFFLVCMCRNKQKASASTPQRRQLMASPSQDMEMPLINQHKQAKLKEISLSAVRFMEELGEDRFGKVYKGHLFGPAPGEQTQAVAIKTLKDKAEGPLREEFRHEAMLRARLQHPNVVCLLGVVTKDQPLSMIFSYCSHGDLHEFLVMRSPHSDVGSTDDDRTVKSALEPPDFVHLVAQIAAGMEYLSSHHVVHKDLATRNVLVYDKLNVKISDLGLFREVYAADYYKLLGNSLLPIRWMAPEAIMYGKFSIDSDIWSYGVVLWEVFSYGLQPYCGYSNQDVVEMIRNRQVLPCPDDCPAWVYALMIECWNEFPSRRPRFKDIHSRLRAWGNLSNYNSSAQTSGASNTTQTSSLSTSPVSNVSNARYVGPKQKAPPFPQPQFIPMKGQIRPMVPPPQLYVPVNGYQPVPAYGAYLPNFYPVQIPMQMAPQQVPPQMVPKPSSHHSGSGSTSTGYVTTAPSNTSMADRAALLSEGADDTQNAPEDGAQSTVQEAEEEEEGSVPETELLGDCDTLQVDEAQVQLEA
UniProt Q15418, whole entry: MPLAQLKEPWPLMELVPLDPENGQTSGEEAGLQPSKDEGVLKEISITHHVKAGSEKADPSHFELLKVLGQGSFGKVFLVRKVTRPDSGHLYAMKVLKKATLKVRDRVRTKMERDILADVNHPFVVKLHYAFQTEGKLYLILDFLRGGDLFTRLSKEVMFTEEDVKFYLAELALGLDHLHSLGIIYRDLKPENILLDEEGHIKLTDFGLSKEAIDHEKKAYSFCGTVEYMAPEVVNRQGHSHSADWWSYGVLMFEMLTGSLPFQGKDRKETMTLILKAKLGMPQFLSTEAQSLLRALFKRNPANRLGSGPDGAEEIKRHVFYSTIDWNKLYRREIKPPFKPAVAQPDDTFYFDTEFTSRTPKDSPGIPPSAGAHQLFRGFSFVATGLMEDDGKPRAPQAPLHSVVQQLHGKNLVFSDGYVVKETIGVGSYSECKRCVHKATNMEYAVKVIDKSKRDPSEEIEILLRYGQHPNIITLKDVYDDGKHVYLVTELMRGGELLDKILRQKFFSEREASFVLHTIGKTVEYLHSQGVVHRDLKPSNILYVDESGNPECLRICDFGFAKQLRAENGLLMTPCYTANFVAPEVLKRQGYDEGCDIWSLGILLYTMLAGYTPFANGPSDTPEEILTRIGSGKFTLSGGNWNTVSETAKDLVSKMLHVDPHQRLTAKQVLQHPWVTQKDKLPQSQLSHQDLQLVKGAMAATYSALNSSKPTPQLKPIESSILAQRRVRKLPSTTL
UniProt Q9Y6E0: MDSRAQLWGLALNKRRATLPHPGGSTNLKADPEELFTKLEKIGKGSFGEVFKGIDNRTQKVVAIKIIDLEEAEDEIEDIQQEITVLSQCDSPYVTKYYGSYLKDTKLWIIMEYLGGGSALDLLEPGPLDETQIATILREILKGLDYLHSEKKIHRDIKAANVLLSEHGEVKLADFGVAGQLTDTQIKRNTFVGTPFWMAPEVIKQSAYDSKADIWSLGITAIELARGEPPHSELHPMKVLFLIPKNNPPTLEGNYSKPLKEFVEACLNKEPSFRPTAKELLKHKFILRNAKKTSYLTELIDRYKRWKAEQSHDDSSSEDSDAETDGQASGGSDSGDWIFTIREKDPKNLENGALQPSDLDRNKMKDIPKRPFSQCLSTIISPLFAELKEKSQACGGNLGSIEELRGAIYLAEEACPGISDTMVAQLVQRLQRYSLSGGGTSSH
UniProt Q15208: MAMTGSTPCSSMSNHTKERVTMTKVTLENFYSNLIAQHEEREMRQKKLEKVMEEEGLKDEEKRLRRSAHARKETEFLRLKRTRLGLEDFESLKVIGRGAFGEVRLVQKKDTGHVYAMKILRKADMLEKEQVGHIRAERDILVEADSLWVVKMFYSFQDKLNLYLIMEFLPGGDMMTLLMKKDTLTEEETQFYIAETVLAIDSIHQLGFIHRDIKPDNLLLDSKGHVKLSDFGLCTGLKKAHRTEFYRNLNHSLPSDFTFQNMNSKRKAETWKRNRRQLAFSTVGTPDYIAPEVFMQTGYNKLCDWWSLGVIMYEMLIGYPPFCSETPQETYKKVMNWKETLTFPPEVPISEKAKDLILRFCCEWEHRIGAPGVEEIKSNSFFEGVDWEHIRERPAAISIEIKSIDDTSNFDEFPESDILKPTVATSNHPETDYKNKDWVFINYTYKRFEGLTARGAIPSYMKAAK
UniProt P29597: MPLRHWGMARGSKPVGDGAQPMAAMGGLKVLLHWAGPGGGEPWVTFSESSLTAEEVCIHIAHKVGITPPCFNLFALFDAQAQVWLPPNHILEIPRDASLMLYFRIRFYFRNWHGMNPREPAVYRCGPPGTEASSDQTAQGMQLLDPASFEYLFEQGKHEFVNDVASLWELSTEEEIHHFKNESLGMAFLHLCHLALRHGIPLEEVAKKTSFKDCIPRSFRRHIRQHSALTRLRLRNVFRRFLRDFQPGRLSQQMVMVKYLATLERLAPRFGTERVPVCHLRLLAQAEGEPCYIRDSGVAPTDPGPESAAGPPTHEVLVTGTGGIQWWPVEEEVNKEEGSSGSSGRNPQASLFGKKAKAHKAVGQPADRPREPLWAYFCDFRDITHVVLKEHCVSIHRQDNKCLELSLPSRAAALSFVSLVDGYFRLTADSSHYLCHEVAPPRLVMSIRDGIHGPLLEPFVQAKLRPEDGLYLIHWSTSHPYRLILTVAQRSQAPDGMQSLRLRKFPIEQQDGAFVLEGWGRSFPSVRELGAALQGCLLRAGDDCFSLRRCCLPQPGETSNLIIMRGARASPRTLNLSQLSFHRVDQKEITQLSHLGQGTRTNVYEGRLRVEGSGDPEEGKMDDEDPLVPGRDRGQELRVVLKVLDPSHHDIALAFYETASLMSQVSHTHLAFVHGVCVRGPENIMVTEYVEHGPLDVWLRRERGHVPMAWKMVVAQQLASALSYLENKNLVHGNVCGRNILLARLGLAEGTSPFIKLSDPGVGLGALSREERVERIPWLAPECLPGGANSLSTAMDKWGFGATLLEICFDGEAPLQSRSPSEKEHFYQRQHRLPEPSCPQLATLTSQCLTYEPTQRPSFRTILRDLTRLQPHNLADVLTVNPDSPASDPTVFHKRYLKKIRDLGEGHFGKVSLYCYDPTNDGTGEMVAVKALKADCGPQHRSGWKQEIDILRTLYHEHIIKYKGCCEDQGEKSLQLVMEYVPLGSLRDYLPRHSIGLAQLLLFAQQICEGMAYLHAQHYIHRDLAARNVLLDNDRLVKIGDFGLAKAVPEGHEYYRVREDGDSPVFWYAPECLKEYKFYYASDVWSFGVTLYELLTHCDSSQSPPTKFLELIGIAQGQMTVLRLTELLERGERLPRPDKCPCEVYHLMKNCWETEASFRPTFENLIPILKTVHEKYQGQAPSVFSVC
UniProt Q6PHR2: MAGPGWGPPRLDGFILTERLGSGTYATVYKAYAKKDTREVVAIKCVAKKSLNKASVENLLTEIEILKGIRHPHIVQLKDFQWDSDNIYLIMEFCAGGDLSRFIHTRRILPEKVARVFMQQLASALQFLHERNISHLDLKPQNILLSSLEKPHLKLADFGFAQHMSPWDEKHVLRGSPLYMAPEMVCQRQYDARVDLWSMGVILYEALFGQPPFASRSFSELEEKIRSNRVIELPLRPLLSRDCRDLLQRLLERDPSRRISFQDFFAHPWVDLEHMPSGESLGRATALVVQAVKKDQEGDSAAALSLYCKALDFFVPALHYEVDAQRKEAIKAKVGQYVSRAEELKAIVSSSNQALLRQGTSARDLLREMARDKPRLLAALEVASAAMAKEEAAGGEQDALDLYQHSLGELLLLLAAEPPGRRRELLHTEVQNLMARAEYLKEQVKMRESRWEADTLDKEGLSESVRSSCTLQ
UniProt P07947, whole entry, looked up: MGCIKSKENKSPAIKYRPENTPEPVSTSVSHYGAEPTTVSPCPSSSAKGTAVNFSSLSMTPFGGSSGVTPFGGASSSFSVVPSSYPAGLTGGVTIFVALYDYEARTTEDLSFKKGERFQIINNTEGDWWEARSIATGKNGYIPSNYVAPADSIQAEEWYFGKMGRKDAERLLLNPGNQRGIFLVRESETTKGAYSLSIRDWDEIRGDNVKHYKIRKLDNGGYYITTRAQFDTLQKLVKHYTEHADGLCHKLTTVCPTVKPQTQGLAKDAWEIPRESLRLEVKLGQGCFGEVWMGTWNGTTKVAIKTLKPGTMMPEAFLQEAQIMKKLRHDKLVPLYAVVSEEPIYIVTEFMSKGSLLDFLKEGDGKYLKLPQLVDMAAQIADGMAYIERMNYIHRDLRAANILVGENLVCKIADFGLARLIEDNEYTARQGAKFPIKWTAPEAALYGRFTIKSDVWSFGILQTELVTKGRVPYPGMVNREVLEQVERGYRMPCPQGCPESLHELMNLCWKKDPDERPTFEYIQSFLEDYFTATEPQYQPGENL
UniProt P00519, whole entry: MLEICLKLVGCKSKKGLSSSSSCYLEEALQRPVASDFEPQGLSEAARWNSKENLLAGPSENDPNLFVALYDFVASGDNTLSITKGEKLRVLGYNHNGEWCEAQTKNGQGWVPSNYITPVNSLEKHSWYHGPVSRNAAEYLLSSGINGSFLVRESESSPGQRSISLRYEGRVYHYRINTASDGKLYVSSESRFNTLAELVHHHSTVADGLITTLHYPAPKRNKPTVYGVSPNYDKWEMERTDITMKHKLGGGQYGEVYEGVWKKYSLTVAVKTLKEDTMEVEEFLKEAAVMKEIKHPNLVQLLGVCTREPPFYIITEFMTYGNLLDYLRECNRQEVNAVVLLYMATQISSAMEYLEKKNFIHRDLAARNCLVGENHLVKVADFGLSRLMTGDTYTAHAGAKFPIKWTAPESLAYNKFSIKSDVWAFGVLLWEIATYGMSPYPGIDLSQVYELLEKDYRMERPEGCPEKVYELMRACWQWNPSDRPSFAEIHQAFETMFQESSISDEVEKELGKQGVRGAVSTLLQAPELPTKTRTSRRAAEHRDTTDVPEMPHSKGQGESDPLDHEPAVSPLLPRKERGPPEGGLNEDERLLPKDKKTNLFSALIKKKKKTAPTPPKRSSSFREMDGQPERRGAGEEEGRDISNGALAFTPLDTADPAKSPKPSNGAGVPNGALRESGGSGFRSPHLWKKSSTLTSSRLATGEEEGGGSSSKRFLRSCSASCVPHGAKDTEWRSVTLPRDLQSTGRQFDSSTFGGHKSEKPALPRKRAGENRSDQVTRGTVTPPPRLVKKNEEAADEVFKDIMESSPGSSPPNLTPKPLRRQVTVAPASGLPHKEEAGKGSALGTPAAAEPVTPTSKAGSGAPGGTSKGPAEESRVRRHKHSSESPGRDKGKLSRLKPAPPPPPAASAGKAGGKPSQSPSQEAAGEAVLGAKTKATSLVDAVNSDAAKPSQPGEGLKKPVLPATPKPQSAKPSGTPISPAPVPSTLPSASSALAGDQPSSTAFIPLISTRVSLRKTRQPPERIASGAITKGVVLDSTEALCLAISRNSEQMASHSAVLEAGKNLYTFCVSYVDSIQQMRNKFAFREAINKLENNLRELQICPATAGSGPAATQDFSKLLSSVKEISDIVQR

Legend:
Settings in all cases: K562; 2-18 h
RET = RET (UniProt P07949); assay: kinase-Nluc reporter destabilization hit call (1 = scored as downregulated) (binary); higher = compound decreases kinase abundance
[1] = target: RET_M918T (clone: RET_mut) (UniProt P07949); assay: as above
RIOK1 = RIOK1 (UniProt Q9BRS2); assay: as above
RIPK1 = RIPK1 (UniProt Q13546); assay: as above
RIPK2 = RIPK2 (UniProt O43353); assay: as above
ROR2 = ROR2 (UniProt Q01974); assay: as above
RPS6KA1 = RPS6KA1 (UniProt Q15418); assay: as above
SPHK1 = SPHK1 (UniProt Q9NYA1); assay: as above
SRC = SRC (UniProt P12931); assay: as above
STK24 = STK24 (UniProt Q9Y6E0); assay: as above
STK38 = STK38 (UniProt Q15208); assay: as above
SYK = SYK (UniProt P43405); assay: as above
TEC = TEC (UniProt P42680); assay: as above
TYK2 = TYK2 (UniProt P29597); assay: as above
ULK3 = ULK3 (UniProt Q6PHR2); assay: as above
YES1 = YES1 (UniProt P07947); assay: as above
ZAK = ZAK (UniProt Q9NYL2); assay: as above
ZAP70 = ZAP70 (UniProt P43403); assay: as above
ABL1 = ABL1 (UniProt P00519); assay: number of time points (of 5) at which kinase-Nluc abundance scored as decreased, DMSO-normalised (count); higher = more persistent destabilization
AKT1 = AKT1 (UniProt P31749); assay: as above

| Structure (SMILES) | kinase-Nluc reporter destabilization hit call (RET) | kinase-Nluc reporter destabilization hit call [1] | kinase-Nluc reporter destabilization hit call (RIOK1) | kinase-Nluc reporter destabilization hit call (RIPK1) | kinase-Nluc reporter destabilization hit call (RIPK2) | kinase-Nluc reporter destabilization hit call (ROR2) | kinase-Nluc reporter destabilization hit call (RPS6KA1) | kinase-Nluc reporter destabilization hit call (SPHK1) | kinase-Nluc reporter destabilization hit call (SRC) | kinase-Nluc reporter destabilization hit call (STK24) | kinase-Nluc reporter destabilization hit call (STK38) | kinase-Nluc reporter destabilization hit call (SYK) | kinase-Nluc reporter destabilization hit call (TEC) | kinase-Nluc reporter destabilization hit call (TYK2) | kinase-Nluc reporter destabilization hit call (ULK3) | kinase-Nluc reporter destabilization hit call (YES1) | kinase-Nluc reporter destabilization hit call (ZAK) | kinase-Nluc reporter destabilization hit call (ZAP70) | number of time points (ABL1) | number of time points (AKT1) |
| --- | --- | --- | --- | --- | --- | --- | --- | --- | --- | --- | --- | --- | --- | --- | --- | --- | --- | --- | --- | --- |
| CC1C(=O)OC2C(O)C34C5OC(=O)C3(OC3OC(=O)C(O)C34C(C(C)(C)C)C5O)C12O (stereo not given) [Ginkgolide C] (10 µM) | inactive: 0 | inactive: 0 | inactive: 0 | inactive: 0 | inactive: 0 | inactive: 0 | inactive: 0 | inactive: 0 | inactive: 0 | inactive: 0 | inactive: 0 | inactive: 0 | inactive: 0 | inactive: 0 | inactive: 0 | inactive: 0 | inactive: 0 | inactive: 0 | 0 | 0 |
| COc1ccc2c(c[n+](C)c3c4cc5c(cc4ccc23)OCO5)c1OC [Chelerythrine (chloride)] (10 µM) | inactive: 0 | inactive: 0 | inactive: 0 | inactive: 0 | inactive: 0 | inactive: 0 | inactive: 0 | inactive: 0 | inactive: 0 | inactive: 0 | inactive: 0 | inactive: 0 | inactive: 0 | inactive: 0 | inactive: 0 | inactive: 0 | inactive: 0 | inactive: 0 | 0 | 0 |
| O=Cc1cn(Cc2ccc(Cl)cc2)c2ccccc12 [Oncrasin-1] (10 µM) | inactive: 0 | inactive: 0 | inactive: 0 | inactive: 0 | inactive: 0 | inactive: 0 | inactive: 0 | inactive: 0 | inactive: 0 | inactive: 0 | inactive: 0 | inactive: 0 | inactive: 0 | inactive: 0 | inactive: 0 | inactive: 0 | inactive: 0 | inactive: 0 | 0 | 0 |
| O=C1C=CC[C@@H]2[C@H]3CCCN4CCC[C@@H](CN12)[C@@H]34 [Sophocarpine] (10 µM) | inactive: 0 | inactive: 0 | inactive: 0 | inactive: 0 | inactive: 0 | inactive: 0 | inactive: 0 | inactive: 0 | inactive: 0 | inactive: 0 | inactive: 0 | inactive: 0 | inactive: 0 | inactive: 0 | inactive: 0 | inactive: 0 | inactive: 0 | inactive: 0 | 0 | 0 |
| COc1ccc(/C=C/c2cc(OC)c(OC)c(OC)c2)cc1 (2.5 µM) | inactive: 0 | inactive: 0 | inactive: 0 | inactive: 0 | inactive: 0 | inactive: 0 | inactive: 0 | inactive: 0 | inactive: 0 | inactive: 0 | inactive: 0 | inactive: 0 | inactive: 0 | inactive: 0 | inactive: 0 | inactive: 0 | inactive: 0 | inactive: 0 | 4 | 0 |
| O=C(O)c1sc2cc(Cl)ccc2c1Cl (10 µM) | inactive: 0 | inactive: 0 | inactive: 0 | inactive: 0 | inactive: 0 | inactive: 0 | inactive: 0 | inactive: 0 | inactive: 0 | inactive: 0 | inactive: 0 | inactive: 0 | inactive: 0 | inactive: 0 | inactive: 0 | inactive: 0 | inactive: 0 | inactive: 0 | 0 | 0 |
| C=C[C@H]1CN2CC[C@]3(C(=O)Nc4ccccc43)[C@@H]2C[C@@H]1/C(=C\OC)C(=O)OC [Corynoxeine] (2 µM) | inactive: 0 | inactive: 0 | inactive: 0 | inactive: 0 | inactive: 0 | inactive: 0 | inactive: 0 | inactive: 0 | inactive: 0 | inactive: 0 | inactive: 0 | inactive: 0 | inactive: 0 | inactive: 0 | inactive: 0 | inactive: 0 | inactive: 0 | inactive: 0 | 0 | 0 |
| COC[C@H]1OC(=O)c2coc3c2[C@@]1(C)C1=C(C3=O)[C@@H]2CCC(=O)[C@@]2(C)C[C@H]1OC(C)=O [Wortmannin] (2.5 µM) | inactive: 0 | inactive: 0 | inactive: 0 | inactive: 0 | inactive: 0 | inactive: 0 | inactive: 0 | inactive: 0 | inactive: 0 | inactive: 0 | inactive: 0 | inactive: 0 | inactive: 0 | inactive: 0 | inactive: 0 | inactive: 0 | inactive: 0 | inactive: 0 | 4 | 0 |
| CC(=O)O[C@H]1[C@H]2[C@@H](OC(=O)Cc3ccccc3)[C@@H](C)C[C@]2(OC(C)=O)C(=O)/C(C)=C/[C@@H]2[C@H](CC[C@@]13CO3)C2(C)C [Euphorbiasteroid] (10 µM) | inactive: 0 | inactive: 0 | inactive: 0 | inactive: 0 | inactive: 0 | inactive: 0 | inactive: 0 | inactive: 0 | inactive: 0 | inactive: 0 | inactive: 0 | inactive: 0 | inactive: 0 | inactive: 0 | inactive: 0 | inactive: 0 | inactive: 0 | inactive: 0 | 0 | 0 |
| Cn1cc(C2=C(c3cn(C4CCN(Cc5ccccn5)CC4)c4ccccc34)C(=O)NC2=O)c2ccccc21 [Enzastaurin] (10 µM) | inactive: 0 | inactive: 0 | inactive: 0 | inactive: 0 | inactive: 0 | inactive: 0 | inactive: 0 | inactive: 0 | inactive: 0 | inactive: 0 | inactive: 0 | inactive: 0 | inactive: 0 | inactive: 0 | inactive: 0 | inactive: 0 | inactive: 0 | inactive: 0 | 0 | 0 |
| CC(C)=CC[C@@H](OC(=O)CC(C)(C)O)C1=CC(=O)c2c(O)ccc(O)c2C1=O [β-Hydroxyisovalerylshikonin] (2.5 µM) | inactive: 0 | inactive: 0 | inactive: 0 | inactive: 0 | inactive: 0 | inactive: 0 | inactive: 0 | inactive: 0 | inactive: 0 | inactive: 0 | inactive: 0 | inactive: 0 | inactive: 0 | inactive: 0 | inactive: 0 | inactive: 0 | inactive: 0 | inactive: 0 | 0 | 0 |
| O=C(/C=C/c1ccccc1)OC[C@H]1O[C@@H](O[C@@H]2OC=C[C@H]3[C@H](O)[C@@H]4O[C@]4(CO)[C@@H]23)[C@H](O)[C@@H](O)[C@@H]1O [Picroside I] (10 µM) | inactive: 0 | inactive: 0 | inactive: 0 | inactive: 0 | inactive: 0 | inactive: 0 | inactive: 0 | inactive: 0 | inactive: 0 | inactive: 0 | inactive: 0 | inactive: 0 | inactive: 0 | inactive: 0 | inactive: 0 | inactive: 0 | inactive: 0 | inactive: 0 | 0 | 0 |
| COc1ccc2c(c1OC)C(OC)N(C)c1c-2ccc2cc3c(cc12)OCO3 (stereo not given) [Angoline] (10 µM) | inactive: 0 | inactive: 0 | inactive: 0 | inactive: 0 | inactive: 0 | inactive: 0 | inactive: 0 | inactive: 0 | inactive: 0 | inactive: 0 | inactive: 0 | inactive: 0 | inactive: 0 | inactive: 0 | inactive: 0 | inactive: 0 | inactive: 0 | inactive: 0 | 0 | 0 |
| CCCCCCCCCCCCCCCCOC[C@H](COP(=O)([O-])OCC[N+](C)(C)C)OC(C)=O (10 µM) | inactive: 0 | inactive: 0 | inactive: 0 | inactive: 0 | inactive: 0 | inactive: 0 | inactive: 0 | inactive: 0 | inactive: 0 | inactive: 0 | inactive: 0 | inactive: 0 | inactive: 0 | inactive: 0 | inactive: 0 | inactive: 0 | inactive: 0 | inactive: 0 | 0 | 0 |
| C[C@H]1CC[C@]2(NC1)O[C@H]1C[C@H]3[C@@H]4CC[C@H]5C[C@@H](O)CC[C@]5(C)[C@H]4CC[C@]3(C)[C@H]1[C@@H]2C [Tomatidine] (2 µM) | inactive: 0 | inactive: 0 | inactive: 0 | inactive: 0 | inactive: 0 | inactive: 0 | inactive: 0 | inactive: 0 | inactive: 0 | inactive: 0 | inactive: 0 | inactive: 0 | inactive: 0 | inactive: 0 | inactive: 0 | inactive: 0 | inactive: 0 | inactive: 0 | 0 | 0 |
| O=C(N[C@@H](COc1ccc2[nH]c(=O)[nH]c2c1)c1ccccc1)c1cccn(Cc2ccc(F)c(F)c2)c1=O (2.5 µM) | inactive: 0 | inactive: 0 | inactive: 0 | inactive: 0 | inactive: 0 | inactive: 0 | inactive: 0 | inactive: 0 | inactive: 0 | inactive: 0 | inactive: 0 | inactive: 0 | inactive: 0 | inactive: 0 | inactive: 0 | inactive: 0 | inactive: 0 | inactive: 0 | 0 | 0 |
| O=C1c2ccccc2C(=O)c2c1cccc2-c1cnn(C2CCNCC2)c1 [PDK4-IN-1 (hydrochloride)] (10 µM) | inactive: 0 | inactive: 0 | inactive: 0 | inactive: 0 | inactive: 0 | inactive: 0 | inactive: 0 | inactive: 0 | inactive: 0 | inactive: 0 | inactive: 0 | inactive: 0 | inactive: 0 | inactive: 0 | inactive: 0 | inactive: 0 | inactive: 0 | inactive: 0 | 0 | 0 |

Single records, as listed above. Order of values: kinase-Nluc reporter destabilization hit call (RET) | kinase-Nluc reporter destabilization hit call [1] | kinase-Nluc reporter destabilization hit call (RIOK1) | kinase-Nluc reporter destabilization hit call (RIPK1) | kinase-Nluc reporter destabilization hit call (RIPK2) | kinase-Nluc reporter destabilization hit call (ROR2) | kinase-Nluc reporter destabilization hit call (RPS6KA1) | kinase-Nluc reporter destabilization hit call (SPHK1) | kinase-Nluc reporter destabilization hit call (SRC) | kinase-Nluc reporter destabilization hit call (STK24) | kinase-Nluc reporter destabilization hit call (STK38) | kinase-Nluc reporter destabilization hit call (SYK) | kinase-Nluc reporter destabilization hit call (TEC) | kinase-Nluc reporter destabilization hit call (TYK2) | kinase-Nluc reporter destabilization hit call (ULK3) | kinase-Nluc reporter destabilization hit call (YES1) | kinase-Nluc reporter destabilization hit call (ZAK) | kinase-Nluc reporter destabilization hit call (ZAP70) | number of time points (ABL1) | number of time points (AKT1)
CC(=O)O[C@H]1[C@H]2[C@@H](OC(=O)Cc3ccccc3)[C@@H](C)C[C@]2(OC(C)=O)C(=O)/C(C)=C/[C@@H]2[C@H](CC[C@@]13CO3)C2(C)C [Euphorbiasteroid] (10 µM) as listed: inactive: 0 | inactive: 0 | inactive: 0 | inactive: 0 | inactive: 0 | inactive: 0 | inactive: 0 | inactive: 0 | inactive: 0 | inactive: 0 | inactive: 0 | inactive: 0 | inactive: 0 | inactive: 0 | inactive: 0 | inactive: 0 | inactive: 0 | inactive: 0 | 0 | 0
O=C(O)c1sc2cc(Cl)ccc2c1Cl (10 µM) as listed: inactive: 0 | inactive: 0 | inactive: 0 | inactive: 0 | inactive: 0 | inactive: 0 | inactive: 0 | inactive: 0 | inactive: 0 | inactive: 0 | inactive: 0 | inactive: 0 | inactive: 0 | inactive: 0 | inactive: 0 | inactive: 0 | inactive: 0 | inactive: 0 | 0 | 0
